This is an account of results in patent publication EP2662079A1 (Ordway Research Institute, Inc., priority 2012, dated 2013).

This data set deals with GL261 murine brain tumor cells. Nature of the data set: GL261 growth curve, cell size and colony forming efficiency. The class given is cell-based. The method, then:
1 x 10^5 cells per 25 cm^2 flask at time zero (density 40 cells/mm^2). Three flasks were utilized at each time period. The medium in the flasks was not changed over the duration of the growth curve (unfed cultures). Data were taken daily from day zero to day 11.5 post-seeding and cell numbers, age distributions, and apoptotic percentages were determined. After growth curve shapes (without and with 2 µM Tetrac) were determined, irradiation times at 70 and 270 hour post-seeding were chosen.
To obtain exponential and plateau phase cell numbers, we trypsinized ([…] trypsin-EDTA) cells for 5 min at 37°C.
For determination of CCDTs, the cell numbers per flask were determined on a daily basis. A four-day interval in the exponential region of growth to obtain the CCDTs, yielding a total of 12 estimations for analysis was utilized. A regression analysis was performed using the (log) of the cell number versus the linear time in days (SigmaPlot, V. 10, Systat Software, Inc., Point Richmond, CA). The log slope value and its standard error (SE) were determined, and the SE was converted to the 95% confidence limits using a two-tailed t-table at N-1 degrees of freedom where N is the number of samples. (See Goldstein, A. In: Biostatistics, New York, The MacMillan Co., 1964, p. 140-146).

`O=C(O)Cc1cc(I)c(Oc2cc(I)c(O)c(I)c2)c(I)c1` [Tetrac, 3,3',5,5'-tetraiodothyroacetic acid]: under “Exponential Cells (+Tetrac)”, the “Mean nuclear/cell area (%)” value was found to be 42%, the “Median Volume (µm^3)” value is given as 3850 µm^3, the “Median cell area (µm^2)” value is on record as 2814 µm^2 and the “Median nuclear area (µm^2)” value is on record as 1180 µm^2. For the same compound, under “Plateau phase Cells (+Tetrac)”, the “Mean nuclear/cell area (%)” value is given as 44%, the “Median Volume (µm^3)” value is recorded as 2780 µm^3, the “Median cell area (µm^2)” value was determined as 700 µm^2 and the “Median nuclear area (µm^2)” value is recorded as 310 µm^2. For the same compound, the “cell size relative to control GL261 cells” value (Tetrac-treated exponential cells) was found to be 1.4 times. Also, the “cell size relative to control GL261 cells” value (Tetrac-treated plateau phase cells) is reported as 1.9 times.
